From the supplement of paper PMC10849652
This is one part of the list.

Chains of the proteins cited; added tags and fusions are not shown. Lines headed by an entry give the natural chain unless they say otherwise; changes in a name come on top.
UniProt O60884: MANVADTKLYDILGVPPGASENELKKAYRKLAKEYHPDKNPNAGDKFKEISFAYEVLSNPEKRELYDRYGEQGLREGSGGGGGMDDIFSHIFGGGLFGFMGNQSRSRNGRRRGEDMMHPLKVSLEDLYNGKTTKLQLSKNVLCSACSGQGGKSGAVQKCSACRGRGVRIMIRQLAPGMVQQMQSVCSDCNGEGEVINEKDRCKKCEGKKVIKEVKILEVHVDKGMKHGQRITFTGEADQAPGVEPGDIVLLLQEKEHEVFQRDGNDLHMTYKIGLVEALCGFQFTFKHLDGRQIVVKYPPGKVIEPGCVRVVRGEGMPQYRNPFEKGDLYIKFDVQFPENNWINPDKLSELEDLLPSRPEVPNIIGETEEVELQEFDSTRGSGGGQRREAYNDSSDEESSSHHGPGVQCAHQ
UniProt Q15398: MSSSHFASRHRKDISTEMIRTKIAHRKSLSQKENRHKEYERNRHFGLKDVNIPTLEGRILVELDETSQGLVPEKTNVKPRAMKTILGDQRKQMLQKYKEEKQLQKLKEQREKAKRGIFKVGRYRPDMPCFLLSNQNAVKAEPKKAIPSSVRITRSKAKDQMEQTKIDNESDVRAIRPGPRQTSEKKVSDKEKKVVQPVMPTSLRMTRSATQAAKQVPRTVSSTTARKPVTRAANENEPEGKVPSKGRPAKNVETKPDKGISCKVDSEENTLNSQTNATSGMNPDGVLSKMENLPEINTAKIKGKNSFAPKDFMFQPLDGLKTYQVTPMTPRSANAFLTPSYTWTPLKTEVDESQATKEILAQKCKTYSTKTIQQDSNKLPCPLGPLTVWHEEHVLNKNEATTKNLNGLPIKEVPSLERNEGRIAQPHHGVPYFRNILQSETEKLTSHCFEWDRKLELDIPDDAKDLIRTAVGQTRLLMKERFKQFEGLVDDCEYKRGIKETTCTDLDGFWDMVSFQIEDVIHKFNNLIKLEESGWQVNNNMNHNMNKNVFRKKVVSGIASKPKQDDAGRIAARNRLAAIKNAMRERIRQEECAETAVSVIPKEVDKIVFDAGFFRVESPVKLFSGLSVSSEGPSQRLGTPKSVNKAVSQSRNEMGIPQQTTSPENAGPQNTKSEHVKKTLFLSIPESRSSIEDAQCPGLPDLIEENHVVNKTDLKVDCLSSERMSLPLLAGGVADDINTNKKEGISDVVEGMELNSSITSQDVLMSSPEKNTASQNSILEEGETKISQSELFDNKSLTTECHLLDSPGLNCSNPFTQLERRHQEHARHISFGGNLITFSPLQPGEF
UniProt O60610, whole entry, looked up: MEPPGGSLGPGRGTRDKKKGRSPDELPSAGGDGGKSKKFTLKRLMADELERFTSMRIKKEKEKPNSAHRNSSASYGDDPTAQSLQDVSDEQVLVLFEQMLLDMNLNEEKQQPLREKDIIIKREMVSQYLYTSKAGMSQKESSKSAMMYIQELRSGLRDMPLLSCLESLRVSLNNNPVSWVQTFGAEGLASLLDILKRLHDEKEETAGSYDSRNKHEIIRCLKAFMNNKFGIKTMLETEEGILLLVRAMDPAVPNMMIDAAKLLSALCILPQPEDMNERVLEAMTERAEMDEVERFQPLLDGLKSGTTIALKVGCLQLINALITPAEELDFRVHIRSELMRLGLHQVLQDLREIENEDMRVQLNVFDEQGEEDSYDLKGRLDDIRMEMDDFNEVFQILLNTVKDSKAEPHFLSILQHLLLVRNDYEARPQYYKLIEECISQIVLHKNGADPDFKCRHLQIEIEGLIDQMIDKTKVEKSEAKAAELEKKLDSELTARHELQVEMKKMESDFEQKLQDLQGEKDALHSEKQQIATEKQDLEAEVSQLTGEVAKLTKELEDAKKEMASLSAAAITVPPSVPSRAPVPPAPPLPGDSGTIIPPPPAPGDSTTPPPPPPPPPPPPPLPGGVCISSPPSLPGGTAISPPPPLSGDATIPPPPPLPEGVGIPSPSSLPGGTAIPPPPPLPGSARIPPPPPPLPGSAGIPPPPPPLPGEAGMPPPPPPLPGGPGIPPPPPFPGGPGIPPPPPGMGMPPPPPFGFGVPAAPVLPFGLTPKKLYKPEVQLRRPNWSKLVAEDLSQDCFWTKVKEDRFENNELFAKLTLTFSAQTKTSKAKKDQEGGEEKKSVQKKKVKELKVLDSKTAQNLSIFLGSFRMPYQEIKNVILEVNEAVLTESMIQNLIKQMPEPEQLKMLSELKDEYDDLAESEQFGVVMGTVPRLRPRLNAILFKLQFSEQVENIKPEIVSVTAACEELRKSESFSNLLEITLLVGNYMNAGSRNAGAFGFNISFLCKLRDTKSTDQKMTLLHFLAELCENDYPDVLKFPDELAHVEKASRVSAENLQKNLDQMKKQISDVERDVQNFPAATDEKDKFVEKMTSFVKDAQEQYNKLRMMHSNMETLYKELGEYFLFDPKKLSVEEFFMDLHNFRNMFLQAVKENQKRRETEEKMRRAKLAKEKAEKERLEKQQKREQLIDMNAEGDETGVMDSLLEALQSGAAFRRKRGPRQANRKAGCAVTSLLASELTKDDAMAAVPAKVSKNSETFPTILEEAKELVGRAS
UniProt Q9UMR2: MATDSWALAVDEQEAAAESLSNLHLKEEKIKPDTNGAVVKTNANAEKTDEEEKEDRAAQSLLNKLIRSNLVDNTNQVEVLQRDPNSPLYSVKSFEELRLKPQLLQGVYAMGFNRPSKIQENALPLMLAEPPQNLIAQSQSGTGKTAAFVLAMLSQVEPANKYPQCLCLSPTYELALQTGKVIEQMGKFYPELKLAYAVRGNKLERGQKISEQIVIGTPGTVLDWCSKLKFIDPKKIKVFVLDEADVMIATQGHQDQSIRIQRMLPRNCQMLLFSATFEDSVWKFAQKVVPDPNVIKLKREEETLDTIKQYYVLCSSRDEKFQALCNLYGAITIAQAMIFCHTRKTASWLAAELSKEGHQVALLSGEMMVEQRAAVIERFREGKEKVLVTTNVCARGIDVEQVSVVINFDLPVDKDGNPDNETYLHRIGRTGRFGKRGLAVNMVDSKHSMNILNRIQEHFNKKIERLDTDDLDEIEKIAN
UniProt Q6IAN0: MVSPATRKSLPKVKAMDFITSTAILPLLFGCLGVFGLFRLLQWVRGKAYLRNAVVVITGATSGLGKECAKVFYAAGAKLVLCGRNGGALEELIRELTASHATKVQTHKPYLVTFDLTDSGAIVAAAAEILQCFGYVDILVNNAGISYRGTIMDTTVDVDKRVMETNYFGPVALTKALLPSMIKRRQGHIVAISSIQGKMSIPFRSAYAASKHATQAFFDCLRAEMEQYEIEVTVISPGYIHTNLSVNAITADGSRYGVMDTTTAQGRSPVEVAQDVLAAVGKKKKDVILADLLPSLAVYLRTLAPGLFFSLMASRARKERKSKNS
UniProt Q92499: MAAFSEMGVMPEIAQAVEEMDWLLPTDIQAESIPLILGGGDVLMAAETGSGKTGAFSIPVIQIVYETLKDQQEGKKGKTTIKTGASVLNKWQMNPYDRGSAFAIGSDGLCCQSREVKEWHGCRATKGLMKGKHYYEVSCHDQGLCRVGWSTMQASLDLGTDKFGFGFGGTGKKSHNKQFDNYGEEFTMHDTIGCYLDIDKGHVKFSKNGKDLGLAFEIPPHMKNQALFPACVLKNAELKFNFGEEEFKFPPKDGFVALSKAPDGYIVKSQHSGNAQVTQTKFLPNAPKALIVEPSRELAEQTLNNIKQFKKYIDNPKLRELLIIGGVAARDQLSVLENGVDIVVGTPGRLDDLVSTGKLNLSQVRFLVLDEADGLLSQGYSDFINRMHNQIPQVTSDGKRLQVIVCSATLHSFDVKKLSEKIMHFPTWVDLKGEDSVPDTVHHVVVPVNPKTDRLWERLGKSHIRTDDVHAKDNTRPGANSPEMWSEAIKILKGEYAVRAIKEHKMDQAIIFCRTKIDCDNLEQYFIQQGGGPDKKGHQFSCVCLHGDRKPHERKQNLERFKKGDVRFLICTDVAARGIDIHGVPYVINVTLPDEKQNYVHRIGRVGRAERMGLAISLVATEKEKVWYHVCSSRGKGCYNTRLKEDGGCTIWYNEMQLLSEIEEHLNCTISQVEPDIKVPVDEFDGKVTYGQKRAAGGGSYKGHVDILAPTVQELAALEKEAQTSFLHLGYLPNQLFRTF
UniProt Q96LJ7: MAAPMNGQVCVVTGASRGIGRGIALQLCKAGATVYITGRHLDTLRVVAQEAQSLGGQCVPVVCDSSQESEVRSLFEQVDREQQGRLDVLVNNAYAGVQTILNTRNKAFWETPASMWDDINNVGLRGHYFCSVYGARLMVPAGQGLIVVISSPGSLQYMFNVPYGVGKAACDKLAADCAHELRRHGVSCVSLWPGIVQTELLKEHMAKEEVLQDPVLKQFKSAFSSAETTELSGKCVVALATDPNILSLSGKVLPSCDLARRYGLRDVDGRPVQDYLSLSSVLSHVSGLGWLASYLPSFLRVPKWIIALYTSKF
UniProt Q9UHI6: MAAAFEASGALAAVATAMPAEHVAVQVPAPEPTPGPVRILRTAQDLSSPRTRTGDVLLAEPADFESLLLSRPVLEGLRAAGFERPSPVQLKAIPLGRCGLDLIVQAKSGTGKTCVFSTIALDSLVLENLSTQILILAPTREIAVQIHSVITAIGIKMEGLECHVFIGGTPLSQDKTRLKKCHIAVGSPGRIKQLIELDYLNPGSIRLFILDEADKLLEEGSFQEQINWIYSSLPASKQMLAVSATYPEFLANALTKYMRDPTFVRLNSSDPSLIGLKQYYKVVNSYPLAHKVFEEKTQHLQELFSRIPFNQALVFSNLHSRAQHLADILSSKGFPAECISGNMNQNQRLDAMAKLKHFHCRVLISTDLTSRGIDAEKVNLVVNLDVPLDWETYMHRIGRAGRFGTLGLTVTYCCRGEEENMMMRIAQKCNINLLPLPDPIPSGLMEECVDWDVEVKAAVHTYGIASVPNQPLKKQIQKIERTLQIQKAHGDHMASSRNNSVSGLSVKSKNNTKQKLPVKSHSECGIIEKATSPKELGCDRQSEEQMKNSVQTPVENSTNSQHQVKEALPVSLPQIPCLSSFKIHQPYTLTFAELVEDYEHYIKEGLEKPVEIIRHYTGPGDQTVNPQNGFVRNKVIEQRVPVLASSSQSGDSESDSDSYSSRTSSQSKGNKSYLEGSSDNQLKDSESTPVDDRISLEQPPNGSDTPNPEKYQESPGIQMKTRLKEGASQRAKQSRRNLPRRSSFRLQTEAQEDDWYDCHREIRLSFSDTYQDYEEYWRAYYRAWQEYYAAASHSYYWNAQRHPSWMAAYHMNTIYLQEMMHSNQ
UniProt O60231: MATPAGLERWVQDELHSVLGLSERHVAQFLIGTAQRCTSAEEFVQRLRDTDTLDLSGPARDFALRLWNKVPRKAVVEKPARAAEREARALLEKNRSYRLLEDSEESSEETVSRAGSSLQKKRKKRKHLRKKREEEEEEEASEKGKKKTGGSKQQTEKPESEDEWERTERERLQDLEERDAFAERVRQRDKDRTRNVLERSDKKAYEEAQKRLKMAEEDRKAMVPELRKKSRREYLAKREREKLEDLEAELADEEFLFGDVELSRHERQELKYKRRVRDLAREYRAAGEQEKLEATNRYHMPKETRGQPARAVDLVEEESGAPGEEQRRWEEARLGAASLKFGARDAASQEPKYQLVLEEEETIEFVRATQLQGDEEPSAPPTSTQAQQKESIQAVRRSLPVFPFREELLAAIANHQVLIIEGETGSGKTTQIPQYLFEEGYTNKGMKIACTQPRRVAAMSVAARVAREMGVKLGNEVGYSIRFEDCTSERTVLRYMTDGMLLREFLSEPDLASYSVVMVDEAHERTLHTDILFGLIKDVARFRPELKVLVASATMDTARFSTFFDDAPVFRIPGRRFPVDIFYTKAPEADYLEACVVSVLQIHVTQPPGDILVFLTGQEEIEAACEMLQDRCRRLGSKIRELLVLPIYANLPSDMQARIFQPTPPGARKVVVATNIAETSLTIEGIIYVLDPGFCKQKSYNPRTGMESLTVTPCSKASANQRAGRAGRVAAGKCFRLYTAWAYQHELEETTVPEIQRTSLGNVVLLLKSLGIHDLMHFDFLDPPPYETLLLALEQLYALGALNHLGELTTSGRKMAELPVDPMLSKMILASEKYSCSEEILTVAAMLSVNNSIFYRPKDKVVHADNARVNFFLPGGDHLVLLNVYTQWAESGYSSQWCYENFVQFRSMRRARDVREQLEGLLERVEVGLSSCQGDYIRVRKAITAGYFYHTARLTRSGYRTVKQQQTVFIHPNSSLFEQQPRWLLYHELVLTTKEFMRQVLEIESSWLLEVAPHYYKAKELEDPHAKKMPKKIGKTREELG
UniProt Q9BUN8: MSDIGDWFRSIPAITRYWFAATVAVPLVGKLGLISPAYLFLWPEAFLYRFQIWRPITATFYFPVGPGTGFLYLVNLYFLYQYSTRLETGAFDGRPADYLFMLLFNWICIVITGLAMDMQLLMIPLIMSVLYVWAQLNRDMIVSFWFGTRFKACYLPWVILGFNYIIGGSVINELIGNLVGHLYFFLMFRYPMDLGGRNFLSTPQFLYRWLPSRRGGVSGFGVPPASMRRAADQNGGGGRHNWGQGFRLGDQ

How the values were obtained:
Test in all cases: log2 fold change, soluble protein after heating vs DMSO (PISA); higher = thermal stabilisation; K562 cells, 10 uM, 30 min; active = over 0.2 and 3.5 SD of the protein, either way, in both replicates (recomputed)
[1] = compound: COC1=CC=C(C=C1)CN2C=CC3=C2C=C(C=C3)C(=O)NO
Outline: (§1)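 K562 cells at 2×10^6 cells/mL were treated for 30 min with 10 μM compound, and aliquots were heated for 3 min over 48°C-58°C before pooling. Extraction used PBS with 0.5% NP-40 at 4°C, and soluble protein was the supernatant after 21,000xg for 90 min, measured by TMTpro 16plex LC-MS/MS with channel sums equalised. Thermal stability values, relative to control samples and from duplicates, are log2 fold changes.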

[2] = compound: CON(C)C(=O)N1N=C(c2cc(F)ccc2F)S[C@@]1(CCCN)c1ccccc1 [filanesib]
Outline: as §1

[3] = compound: CO[C@H]1C[C@@H]2CC[C@@H](C)[C@@](O)(O2)C(=O)C(=O)N2CCCC[C@H]2C(=O)O[C@H]([C@H](C)C[C@@H]2CC[C@H](n3cnnn3)[C@H](OC)C2)CC(=O)[C@H](C)/C=C(\C)[C@@H](O)[C@@H](OC)C(=O)[C@H](C)C[C@H](C)/C=C/C=C/C=C/1C [zotarolimus]
Outline: as §1

[4] = compound: COc1cc(C(=O)O)ccc1NC(=O)[C@@H]1N[C@@H](CC(C)(C)C)[C@](C#N)(c2ccc(Cl)cc2F)[C@H]1c1cccc(Cl)c1F [idasanutlin]
Outline: as §1

[5] = compound: COc1cc(Nc2ncc3c(n2)-c2ccc(Cl)cc2C(c2c(F)cccc2OC)=NC3)ccc1C(=O)O [alisertib]
Outline: as §1

[6] = compound: COc1cc2nc(-c3cc(F)ccc3O)nc(N[C@@H]3CNC[C@H]3C(C)(C)O)c2cc1OC
Outline: as §1

[7] = compound: COc1cc2ncnc(Nc3ccc(F)c(Cl)c3)c2cc1OCCCN1CCOCC1 [gefitinib]
Outline: as §1

[8] = compound: COc1cccc2cc(-c3nc([C@H]4CC[C@H](C(=O)O)CC4)n4ncnc(N)c34)[nH]c12
Outline: as §1

[9] = compound: CS(=O)(=O)CCNCc1ccc(-c2ccc3ncnc(Nc4ccc(OCc5cccc(F)c5)c(Cl)c4)c3c2)o1 [lapatinib]
Outline: as §1

[10] = compound: CS(=O)(=O)N1CCN(Cc2cc3nc(-c4cccc5[nH]ncc45)nc(N4CCOCC4)c3s2)CC1 [pictilisib]
Outline: as §1

Measured: log2 fold change

DNAJA2 (UniProt O60884)
inactive: [1] 0.032 | [2] -0.026 | [3] 0.002 | [4] -0.05 | [5] -0.044 | [6] 0.1 | [7] 0.02 | [8] 0.012 | [9] -0.022 | [10] -0.022

DNAJA1 (UniProt P31689)
inactive: [1] -0.065 | [2] -0.006 | [3] -0.012 | [4] -0.015 | [5] 0 | [6] -0.011 | [7] 0.011 | [8] 0.055 | [9] -0.023 | [10] -0.034

DLGAP5 (UniProt Q15398)
inactive: [1] -0.038 | [2] 0.011 | [3] -0.01 | [4] 0.08 | [5] 0.032 | [6] -0.075 | [7] 0.014 | [8] -0.058 | [9] 0.016 | [10] 0.006

DHX8 (UniProt Q14562)
inactive: [1] -0.173 | [2] 0.014 | [3] -0.054 | [4] 0.005 | [5] -0.078 | [6] 0.164 | [7] 0.002 | [8] 0.029 | [9] -0.107 | [10] 0.116

DIAPH1 (UniProt O60610)
inactive: [1] 0.008 | [2] 0.083 | [3] 0.081 | [4] 0.04 | [5] -0.099 | [6] -0.06 | [7] 0.046 | [8] -0.193 | [9] 0.075 | [10] 0.006

DES (UniProt P17661)
inactive: [1] -0.128 | [2] -0.032 | [3] -0.016 | [4] -0.046 | [5] -0.129 | [6] 0.189 | [7] -0.002 | [8] -0.031 | [9] -0.106 | [10] 0.058

DHRS4 (UniProt Q9BTZ2)
inactive: [1] 0.113 | [2] -0.103 | [3] -0.014 | [4] -0.008 | [5] -0.045 | [6] -0.004 | [7] 0.045 | [8] 0.04 | [9] 0.015 | [10] -0.034

DHX15 (UniProt O43143)
inactive: [1] -0.031 | [2] -0.015 | [3] 0.01 | [4] -0.011 | [5] -0.045 | [6] 0.046 | [7] -0.005 | [8] 0.017 | [9] -0.034 | [10] 0.01

DDX19B (UniProt Q9UMR2)
inactive: [1] 0.041 | [2] -0.059 | [3] 0.054 | [4] -0.023 | [5] -0.056 | [6] -0.008 | [7] -0.009 | [8] 0.004 | [9] -0.033 | [10] -0.009

DDX19A (UniProt Q9NUU7)
inactive: [1] 0.019 | [2] -0.069 | [3] 0.033 | [4] -0.087 | [5] -0.03 | [6] -0.077 | [7] 0.014 | [8] 0.048 | [9] 0.085 | [10] -0.018

DMAC1 (UniProt Q96GE9)
inactive: [1] -0.121 | [2] 0.04 | [3] -0.04 | [4] -0.339 | [5] -0.174 | [6] -0.111 | [7] -0.074 | [8] 0.145 | [9] 0.053 | [10] 0.038

Retrieved one by one from the list above, two records:
DHX15 (UniProt O43143)
inactive: [1] -0.031 | [2] -0.015 | [3] 0.01 | [4] -0.011 | [5] -0.045 | [6] 0.046 | [7] -0.005 | [8] 0.017 | [9] -0.034 | [10] 0.01

DMAC1 (UniProt Q96GE9)
inactive: [1] -0.121 | [2] 0.04 | [3] -0.04 | [4] -0.339 | [5] -0.174 | [6] -0.111 | [7] -0.074 | [8] 0.145 | [9] 0.053 | [10] 0.038

(list continues)

DIS3L2 (UniProt Q8IYB7)
inactive: [1] -0.067 | [2] 0.129 | [3] -0.044 | [4] 0.059 | [5] -0.067 | [6] 0.155 | [7] 0.006 | [8] 0.014 | [9] 0 | [10] 0.041

DHX29 (UniProt Q7Z478)
inactive: [1] 0.025 | [2] 0.276 | [3] -0.006 | [4] 0.1 | [5] 0.019 | [6] 0.06 | [7] 0.008 | [8] -0.078 | [9] 0.039 | [10] -0.126

DHRS7B (UniProt Q6IAN0)
inactive: [1] 0.012 | [2] 0.03 | [3] -0.058 | [4] -0.03 | [5] 0.012 | [7] 0.056 | [8] -0.025 | [9] 0.109 | [10] -0.143
active: [6] 0.335

DDX1 (UniProt Q92499)
inactive: [1] 0.023 | [2] 0.273 | [3] 0.068 | [4] 0.093 | [5] -0.106 | [6] 0.048 | [7] -0.03 | [8] -0.218 | [9] 0.042 | [10] -0.008

DHRS3 (UniProt O75911)
inactive: [1] 0.13 | [2] -0.009 | [3] -0.056 | [4] -0.107 | [5] 0.008 | [6] 0.031 | [7] 0.067 | [8] 0.021 | [9] 0.065 | [10] 0.019

DNAH11 (UniProt Q96DT5)
inactive: [1] 0 | [2] 0.047 | [3] 0.04 | [4] 0.03 | [5] -0.025 | [6] -0.137 | [7] -0.002 | [8] -0.203 | [9] 0.216 | [10] 0.552

DNAAF2 (UniProt Q9NVR5)
inactive: [1] 0.009 | [2] -0.012 | [3] 0.016 | [4] -0.033 | [5] 0.005 | [6] 0.015 | [7] 0.035 | [8] 0.062 | [9] -0.026 | [10] 0.232

DENND4B (UniProt O75064)
inactive: [1] -0.117 | [2] 0.113 | [3] 0.064 | [4] 0.037 | [5] -0.043 | [6] 0.083 | [7] 0.064 | [8] 0.137 | [9] 0.147 | [10] 0.05

DHRS1 (UniProt Q96LJ7)
active: [4] 0.952
inactive: [1] 0.159 | [2] 0.061 | [3] 0.448 | [5] -0.025 | [6] 0.115 | [7] 0.494 | [8] -0.113 | [9] 0.096 | [10] 0.009

DDX20 (UniProt Q9UHI6)
inactive: [1] -0.047 | [2] 0.286 | [3] 0.068 | [4] 0.127 | [5] 0.184 | [6] -0.318 | [7] 0.085 | [8] -0.339 | [9] -0.031 | [10] -0.033

DHX40 (UniProt Q8IX18)
inactive: [1] -0.025 | [2] 0.022 | [3] 0.008 | [4] 0.025 | [5] -0.146 | [6] -0.019 | [7] 0.31 | [8] -0.037 | [9] 0.039 | [10] -0.014

DMXL1 (UniProt Q9Y485)
inactive: [1] 0.023 | [2] 0.046 | [3] -0.008 | [4] -0.012 | [5] -0.003 | [6] 0.02 | [7] -0.029 | [8] -0.003 | [9] -0.02 | [10] -0.015

DHX30 isoform 2 (UniProt Q7L2E3)
inactive: [1] -0.032 | [2] 0.148 | [3] 0.013 | [4] 0.12 | [5] 0.021 | [6] -0.076 | [7] -0.029 | [8] -0.164 | [9] 0.105 | [10] -0.145

DKC1 (UniProt O60832)
inactive: [1] -0.064 | [2] 0.187 | [3] 0 | [4] 0.094 | [5] -0.102 | [6] 0.021 | [7] -0.042 | [8] -0.003 | [9] 0.003 | [10] 0

DDX39B isoform 2 (UniProt Q13838)
inactive: [1] -0.028 | [2] 0.084 | [3] -0.009 | [4] 0.037 | [5] -0.117 | [6] 0.074 | [7] -0.045 | [8] -0.022 | [9] 0 | [10] 0.006

DIS3 (UniProt Q9Y2L1)
inactive: [1] 0.03 | [2] -0.032 | [3] 0.035 | [4] -0.035 | [5] 0.09 | [6] -0.012 | [7] 0.01 | [8] -0.022 | [9] 0.013 | [10] 0.051

DHX16 (UniProt O60231)
inactive: [1] 0.008 | [2] 0.096 | [3] 0.023 | [4] -0.03 | [5] -0.079 | [6] 0.028 | [7] 0.043 | [8] 0.04 | [9] 0.02 | [10] -0.012

DERL1 (UniProt Q9BUN8)
inactive: [1] 0.033 | [2] -0.071 | [3] -0.026 | [4] 0.043 | [5] -0.228 | [6] -0.062 | [7] 0.073 | [8] 0.031 | [9] -0.007 | [10] -0.01
